No constants are given. Whether binding was seen depends on the method and setting. Binding seen in cells or lysates may run through a third protein. Some entries that bind do so weakly or less than the wild type.
Molecular target: fused protein of GST and the ligand-binding domain of ERα (UniProt P03372)
Assay: GST pull-down on glutathione sepharose beads fixed with GST-ERα ligand-binding domain, SDS-PAGE, MALDI-TOF fingerprint

Protein sequences, listed by entry. Tags and fused reporters are not part of them. Lines headed by an entry give the natural chain unless they say otherwise; changes in a name come on top. Residues count along the entry.
UniProt P03372, residues 251-595: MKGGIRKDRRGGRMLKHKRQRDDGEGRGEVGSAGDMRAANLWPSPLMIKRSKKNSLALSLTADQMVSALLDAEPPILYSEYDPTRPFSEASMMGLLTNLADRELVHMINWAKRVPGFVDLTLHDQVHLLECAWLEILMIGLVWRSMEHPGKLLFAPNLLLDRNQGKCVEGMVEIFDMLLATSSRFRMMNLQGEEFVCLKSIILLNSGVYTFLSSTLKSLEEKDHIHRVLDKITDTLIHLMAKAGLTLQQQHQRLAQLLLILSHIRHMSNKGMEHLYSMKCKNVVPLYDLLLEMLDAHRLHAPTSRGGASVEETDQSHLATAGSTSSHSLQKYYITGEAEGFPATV
UniProt P11142: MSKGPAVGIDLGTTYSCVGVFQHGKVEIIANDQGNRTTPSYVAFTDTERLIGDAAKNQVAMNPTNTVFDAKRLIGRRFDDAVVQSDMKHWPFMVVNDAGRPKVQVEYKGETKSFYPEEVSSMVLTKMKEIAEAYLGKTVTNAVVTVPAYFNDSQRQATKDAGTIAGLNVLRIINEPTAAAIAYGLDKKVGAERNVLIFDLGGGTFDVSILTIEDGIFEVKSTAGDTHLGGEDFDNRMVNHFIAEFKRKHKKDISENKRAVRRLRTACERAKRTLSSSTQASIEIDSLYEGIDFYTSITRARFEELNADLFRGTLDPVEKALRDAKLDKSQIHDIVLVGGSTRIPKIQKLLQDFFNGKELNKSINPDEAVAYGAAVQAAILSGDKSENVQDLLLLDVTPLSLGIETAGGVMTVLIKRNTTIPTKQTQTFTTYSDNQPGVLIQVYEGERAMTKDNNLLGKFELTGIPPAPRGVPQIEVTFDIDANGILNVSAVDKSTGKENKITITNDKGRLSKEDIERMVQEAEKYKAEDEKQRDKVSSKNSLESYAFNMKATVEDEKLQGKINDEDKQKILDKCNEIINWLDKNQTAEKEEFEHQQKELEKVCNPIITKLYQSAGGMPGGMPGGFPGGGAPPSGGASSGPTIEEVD

binding: binds
Substance: Hsc70 (heat shock protein isolated from HeLa cell raw nucleus extract) (from UniProt P11142 2-646)

Reference: patent US20050186587A1, “Method for screening a substance which can suppress degradation of a nuclear receptor or a substance which can promote degradation of a nuclear receptor” (Interite, Inc., priority 2004, published 2005)
